Measured values taken from patent US20040171551A1.
No constants are given. Whether binding was seen depends on the method and setting. For some assays here: Binding seen in cells or lysates may run through a third protein. Some binding calls cover weakened binding; strength is not graded here. Where a sequence is shown, tags or fusion partners need not be part of it. Each block holds one binder with its values, some of them ahead of it.

By UniProt entry, the sequences of proteins in these tests, tags left out. Where a name states a change or a piece, a line headed by the entry shows the natural chain unless it says otherwise.
UniProt P0A7C2: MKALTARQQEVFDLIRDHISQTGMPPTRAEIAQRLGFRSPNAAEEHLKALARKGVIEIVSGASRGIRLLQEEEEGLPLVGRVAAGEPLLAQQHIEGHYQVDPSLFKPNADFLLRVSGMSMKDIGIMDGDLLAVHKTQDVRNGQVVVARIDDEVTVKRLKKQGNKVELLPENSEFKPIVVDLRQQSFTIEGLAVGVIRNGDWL

What was measured:
[1] = molecular target: T1, NLS-hLAG-3/I fused to the LexA DNA binding domain (pLex/NLS-hLAG-3/I, R457 to L503) (human) (UniProt P0A7C2+P18627); experiment: yeast two-hybrid, mating of AMR70 (clone plasmid) with L40 carrying pLex/NLS-hLAG-3/I
[2] = molecular target: T2, hLAG-3/EP fused to the LexA DNA binding domain (pLex-hLAG-3/EP, E478 to L503) (human) (UniProt P0A7C2+P18627); experiment: yeast two-hybrid (HIS3 growth and beta-galactosidase), LexA BD bait and GAL4 AD prey
[3] = molecular target: hLAG-3/I fused to the LexA DNA binding domain (pLex-hLAG-3/I, R457 to L503) (human) (UniProt P0A7C2+P18627); experiment: as above
[4] = molecular target: NLS/hLAG-3/EP fused to the LexA DNA binding domain (pLex/NLS-hLAG-3/EP, E478 to L503) (human) (UniProt P0A7C2+P18627); experiment: as above
[5] = molecular target: T1, NLS-hLAG-3/I fused to the LexA DNA binding domain (pLex/NLS-hLAG-3/I, R457 to L503) (human); experiment: as above
[6] = molecular target: T2, hLAG-3/EP fused to the LexA DNA binding domain (pLex-hLAG-3/EP, E478 to L503) (human); experiment: yeast two-hybrid
[7] = molecular target: EP-rich C-terminal region of the PDGF receptor (PDGFR) fused with the LexA BD (human) (UniProt P0A7C2+P09619); experiment: yeast two-hybrid, PDGFR C-terminal region fused with the LexA BD
[8] = molecular target: T3, natural hLAG-3 (70 kDa) protein present in whole cell lysate of PHA-activated human PBMCs (human) (UniProt P18627); experiment: GST pull-down from lysate of activated T lymphocytes
T3 sequence (looked up): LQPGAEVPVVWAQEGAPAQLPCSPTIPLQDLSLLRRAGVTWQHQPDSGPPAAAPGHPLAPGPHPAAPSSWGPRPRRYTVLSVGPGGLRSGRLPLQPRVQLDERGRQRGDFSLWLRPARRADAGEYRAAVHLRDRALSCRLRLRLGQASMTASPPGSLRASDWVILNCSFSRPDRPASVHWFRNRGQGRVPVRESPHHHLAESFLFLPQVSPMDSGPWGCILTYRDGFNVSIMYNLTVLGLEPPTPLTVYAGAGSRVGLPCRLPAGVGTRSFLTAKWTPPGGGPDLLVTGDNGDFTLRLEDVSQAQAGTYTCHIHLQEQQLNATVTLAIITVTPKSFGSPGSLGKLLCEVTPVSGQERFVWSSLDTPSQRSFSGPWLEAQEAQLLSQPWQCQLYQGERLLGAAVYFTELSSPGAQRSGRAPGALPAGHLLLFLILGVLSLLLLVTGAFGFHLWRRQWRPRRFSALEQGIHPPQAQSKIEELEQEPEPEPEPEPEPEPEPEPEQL

[9] = molecular target: T3, natural hLAG-3 (70 kDa) protein present in whole cell lysate of PHA-activated human PBMCs (human); experiment: GST pull-down from lysate of activated T cells
[10] = molecular target: T4, in vitro-translated hLAG-3 protein (T7-coupled rabbit reticulocyte lysate) (human) (UniProt P18627); experiment: GST pull-down of in vitro-translated hLAG-3
T4 sequence (looked up): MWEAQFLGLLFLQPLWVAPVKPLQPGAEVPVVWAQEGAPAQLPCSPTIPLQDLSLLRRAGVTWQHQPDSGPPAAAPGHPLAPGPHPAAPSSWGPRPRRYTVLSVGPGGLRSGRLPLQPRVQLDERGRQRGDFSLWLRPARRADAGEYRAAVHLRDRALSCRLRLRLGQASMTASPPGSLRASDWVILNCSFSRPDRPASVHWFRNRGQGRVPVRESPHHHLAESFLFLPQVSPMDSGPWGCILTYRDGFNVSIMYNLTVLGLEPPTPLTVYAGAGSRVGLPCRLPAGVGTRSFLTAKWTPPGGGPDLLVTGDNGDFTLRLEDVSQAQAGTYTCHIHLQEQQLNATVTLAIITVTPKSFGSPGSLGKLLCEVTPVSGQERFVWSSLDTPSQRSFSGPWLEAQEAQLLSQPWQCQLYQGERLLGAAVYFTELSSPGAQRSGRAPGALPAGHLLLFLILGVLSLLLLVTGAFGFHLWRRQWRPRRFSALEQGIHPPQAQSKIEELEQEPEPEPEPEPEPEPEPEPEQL

[11] = molecular target: T4, in vitro-translated hLAG-3 protein (T7-coupled rabbit reticulocyte lysate) (human); experiment: GST pull-down of in vitro-translated hLAG-3 (FIG. 1B)
[12] = molecular target: T3, natural hLAG-3 (70 kDa) protein present in whole cell lysate of PHA-activated human PBMCs (human); experiment: GST pull-down from lysate of PHA-activated T lymphocytes, Western blot
[13] = molecular target: T4, in vitro-translated hLAG-3 protein (T7-coupled rabbit reticulocyte lysate) (human); experiment: GST pull-down of in vitro-translated hLAG-3, Western blot
[14] = molecular target: T3, natural hLAG-3 (70 kDa) protein present in whole cell lysate of PHA-activated human PBMCs (human); experiment: GST pull-down from whole cell lysate, Western blot (FIG. 1A)

binding [1]: binds | binding [2]: binds | binding [3]: binds | binding [4]: binds | binding [5]: binds | binding [6]: binds | binding [7]: binds
B1: LAP (LAG-3-associated protein) fused to the GAL4 activation domain (pGAD-LAP) (protein, not shown: large carriers)
chain: YLPMQGNPPRRSKSAPPRDLGNLDKGQAASPREPLEPLNFPDPEYKEEEEDQDIQGEISHPDGKVEKVYKNGCRVILFPNGTRKEVSADGKTITVTFFNGDVKQVMPDQRVIYYYAAAQTTHTTYPEGLEVLHFSSGQIEKHYPDGRKEITFPDQTVKNLFPDGQEESIFPDGTIVRVQRDGNKLIEFNNGQRELHTAQFKRREYPDGTVKTVYANGHQETKYRSGRIRVKDKEGNVLMDTEL

binding [8]: binds | binding [9]: binds | binding [10]: binds | binding [11]: binds | binding [12]: binds | binding [13]: binds | binding [14]: binds
B2: GST-LAP fusion protein (LAP linked to glutathione S-transferase), on glutathione-Sepharose beads (protein, not shown: a dimerising Fc or GST)
chain: B1 chain
